{"source": "patent US20070148703A1", "about": "“Method of screening remedy for breast cancer” (Genomembrane, Inc., priority 2003, published 2007)", "key": {"MCF-7 cells": {"test_system": "MCF-7 cells", "assay": "MCF-7 cell proliferation with estrone-3-sulfate or estradiol, with or without BSP", "format": "cell-based, human", "details": "estrogen only (positive control), 3 days", "description": "It was examined whether cell proliferation promoting effect on MCF-7 cells (ATCC-HTB22) by estrone-3-sulfate is inhibited by suppressing intracellular accumulation of estrone-3-sulfate. MCF-7 cells were seeded on a 96-well plate at a concentration of 8×10^4 cells/cm^2, and cultured for 1 day. Then, a medium containing estrone-3-sulfate (Sigma Chemicals) at various concentrations, ranging from 10 pM to 10 μM, and 100 μM of bromosulfophtalein (BSP: Sigma Chemicals), and a medium containing estradiol (Sigma Chemicals) at various concentrations, ranging from 1 pM to 10 nM, and 100 μM of BSP were added respectively, and culture was conducted for 3 more days. Subsequently, cell amount was measured.\nHowever, this is considered to be estrogen activity by BSP itself or metabolite thereof. This effect decreased relatively with the increase of estrogen concentration. […] Accordingly, it is considered that the uptake of estrone-3-sulfate into the cells was inhibited by BSP, and that of estradiol, which is highly lipid-soluble, was not inhibited, and therefore there was no change in cell proliferation promoting effect."}, "T-47D cells": {"test_system": "T-47D cells", "assay": "T-47D cell proliferation assay", "format": "cell-based, human", "details": "1 pM", "description": "(a) T-47D cells were seeded at a density of 8,000 cells/well and cultured. 24 hours after seeding (day 1), estradiol (1 pM, closed triangles), estrone-3-sulfate (100 nM, closed circles), DMSO (0.1, open triangles) or water (open circles) was added. After the designated number of days, T-47D cells were trypsinized and counted.\n(b) T-47D cells were proliferated in the presence of various concentrations of estradiol (closed triangles) or estrone-3-sulfate (closed circles), ranging from 10^−16 to 10^−11 M, or from 10^−11 to 10^−6 M, respectively. The cell numbers were counted at day 6 after seeding. Each value represents the mean±S.E.M. (n=3).\nT-47D cells were routinely proliferated in RPMI 1640 medium (Sigma Chemicals) containing phenol red and 10% FCS in a humidified incubator at 37° C. and 5% CO2. For the proliferation assay, FCS was incubated with 0.5% dextran-coated charcoal (DCC) at 4° C. overnight, then the medium was decanted and DCC was filtered off (0.2 μm) to remove steroid hormones. This procedure was repeated three times. Then T-47D cells were seeded into 96-well plates at a density of 8,000 cells/well in phenol red-free RPMI 1640 medium containing 2.5% DCC-treated FCS. […] At designated days after seeding, the cells were treated with trypsin, and cell numbers were counted."}}, "note": "At least one structure is not confirmed: it was looked up by name or label, or the drawing left a doubt.", "data": [{"smiles": "C[C@]12CC[C@@H]3c4ccc(O)cc4CC[C@H]3[C@@H]1CC[C@@H]2O", "note": "[Estradiol]", "values": [{"measurement": "cell proliferation promoting effect on MCF-7 cells", "setting": "MCF-7 cells", "value": "cell proliferation promoting effect was observed"}, {"measurement": "proliferation of T-47D cells compared with solvent alone", "setting": "T-47D cells", "value": "stimulated"}]}]}
